# Experimental data as given in the supplement of paper PMC6411743.
# ± gives the standard deviation of the averaged measurements. This is one part of the list.
# Legend:
# Experiment in all cases: NP40-soluble protein abundance relative to vehicle (solubility fold change) (ratio); higher = more soluble protein in presence of GTP
# [1] = target: T1, ALG5 (UniProt Q9Y673)
# T1 sequence (whole entry): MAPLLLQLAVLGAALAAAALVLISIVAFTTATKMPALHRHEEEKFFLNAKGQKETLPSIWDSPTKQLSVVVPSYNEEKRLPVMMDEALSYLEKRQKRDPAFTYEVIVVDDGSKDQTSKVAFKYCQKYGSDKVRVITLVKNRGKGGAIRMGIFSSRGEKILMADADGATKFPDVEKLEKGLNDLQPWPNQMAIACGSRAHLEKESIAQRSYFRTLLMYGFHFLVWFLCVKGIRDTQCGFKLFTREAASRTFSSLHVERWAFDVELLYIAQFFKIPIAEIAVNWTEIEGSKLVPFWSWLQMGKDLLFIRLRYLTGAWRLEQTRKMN
# Procedure, shortened: (§1)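 Crude Jurkat lysate, prepared by Dounce homogenisation, was exposed to eight concentrations from 0.1 to 10 mM for 10 min at room temperature and then 3 min at 37 °C. Solubilisation used 0.8% NP40 with benzonase for 60 min at 4 °C, followed by ultracentrifugation and TMT labelling of the supernatant for LC-MS/MS. After vsn normalisation of intensities, each value is the fold change against the detergent-processed vehicle within each replicate, across three independent experiments.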
# [2] = target: T2, ATP11B (UniProt Q9Y2G3)
# T2 sequence (whole entry): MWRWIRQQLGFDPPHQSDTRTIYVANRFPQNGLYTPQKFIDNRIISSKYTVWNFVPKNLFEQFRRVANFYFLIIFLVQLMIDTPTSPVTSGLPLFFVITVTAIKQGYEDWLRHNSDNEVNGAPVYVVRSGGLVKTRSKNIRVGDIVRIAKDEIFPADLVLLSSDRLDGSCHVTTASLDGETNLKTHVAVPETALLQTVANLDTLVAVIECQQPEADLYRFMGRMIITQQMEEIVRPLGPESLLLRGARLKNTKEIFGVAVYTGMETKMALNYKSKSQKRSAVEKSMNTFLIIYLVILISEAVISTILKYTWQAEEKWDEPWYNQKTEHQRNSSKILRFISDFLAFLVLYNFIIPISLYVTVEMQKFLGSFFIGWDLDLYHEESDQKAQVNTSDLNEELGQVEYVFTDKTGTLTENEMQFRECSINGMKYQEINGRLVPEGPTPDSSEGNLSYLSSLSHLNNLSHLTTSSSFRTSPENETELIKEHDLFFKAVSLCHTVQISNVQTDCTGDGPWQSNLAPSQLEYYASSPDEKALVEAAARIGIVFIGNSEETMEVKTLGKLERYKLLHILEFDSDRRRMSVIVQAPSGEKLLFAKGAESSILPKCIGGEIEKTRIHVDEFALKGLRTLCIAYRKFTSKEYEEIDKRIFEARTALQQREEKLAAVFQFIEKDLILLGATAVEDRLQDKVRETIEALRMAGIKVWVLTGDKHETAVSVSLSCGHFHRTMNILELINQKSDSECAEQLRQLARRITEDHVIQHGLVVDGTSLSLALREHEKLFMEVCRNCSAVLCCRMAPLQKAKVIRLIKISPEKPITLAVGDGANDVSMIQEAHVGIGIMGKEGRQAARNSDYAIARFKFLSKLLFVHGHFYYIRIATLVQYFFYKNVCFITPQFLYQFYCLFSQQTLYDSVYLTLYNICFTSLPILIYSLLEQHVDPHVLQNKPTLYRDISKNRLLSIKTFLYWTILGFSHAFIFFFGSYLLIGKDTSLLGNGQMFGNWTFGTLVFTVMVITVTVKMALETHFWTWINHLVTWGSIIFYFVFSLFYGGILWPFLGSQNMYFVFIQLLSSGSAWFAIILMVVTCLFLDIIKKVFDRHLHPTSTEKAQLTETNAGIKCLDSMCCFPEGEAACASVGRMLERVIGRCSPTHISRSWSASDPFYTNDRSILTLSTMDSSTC
# Procedure, shortened: as §1
# [3] = target: T3, CTDP1 (UniProt Q9Y5B0)
# T3 sequence (whole entry): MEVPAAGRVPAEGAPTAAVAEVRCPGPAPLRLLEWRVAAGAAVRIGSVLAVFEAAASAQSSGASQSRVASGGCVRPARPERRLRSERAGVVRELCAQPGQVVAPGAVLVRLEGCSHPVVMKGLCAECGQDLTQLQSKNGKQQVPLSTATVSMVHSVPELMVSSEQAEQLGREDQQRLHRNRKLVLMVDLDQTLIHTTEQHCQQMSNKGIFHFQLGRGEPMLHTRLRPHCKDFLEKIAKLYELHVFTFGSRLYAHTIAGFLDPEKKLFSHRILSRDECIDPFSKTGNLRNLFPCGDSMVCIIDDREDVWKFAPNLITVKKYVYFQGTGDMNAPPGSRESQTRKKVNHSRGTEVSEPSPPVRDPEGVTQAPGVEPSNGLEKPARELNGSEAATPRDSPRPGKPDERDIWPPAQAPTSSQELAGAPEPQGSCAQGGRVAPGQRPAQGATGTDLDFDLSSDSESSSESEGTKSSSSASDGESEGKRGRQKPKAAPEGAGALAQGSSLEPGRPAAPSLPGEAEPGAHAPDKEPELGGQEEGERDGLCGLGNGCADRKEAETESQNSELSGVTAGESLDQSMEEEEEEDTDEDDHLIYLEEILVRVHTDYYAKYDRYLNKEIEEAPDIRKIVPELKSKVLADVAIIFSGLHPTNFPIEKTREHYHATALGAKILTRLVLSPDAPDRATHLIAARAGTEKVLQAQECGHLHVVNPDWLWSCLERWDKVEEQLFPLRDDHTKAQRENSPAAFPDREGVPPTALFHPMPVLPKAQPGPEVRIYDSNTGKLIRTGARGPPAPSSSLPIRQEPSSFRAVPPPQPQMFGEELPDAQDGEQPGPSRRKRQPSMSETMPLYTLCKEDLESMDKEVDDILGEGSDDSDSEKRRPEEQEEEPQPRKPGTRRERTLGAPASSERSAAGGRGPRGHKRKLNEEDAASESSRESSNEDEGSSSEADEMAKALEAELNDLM
# Procedure, shortened: as §1
# [4] = target: T4, DDX52 (UniProt Q9Y2R4)
# T4 sequence (whole entry): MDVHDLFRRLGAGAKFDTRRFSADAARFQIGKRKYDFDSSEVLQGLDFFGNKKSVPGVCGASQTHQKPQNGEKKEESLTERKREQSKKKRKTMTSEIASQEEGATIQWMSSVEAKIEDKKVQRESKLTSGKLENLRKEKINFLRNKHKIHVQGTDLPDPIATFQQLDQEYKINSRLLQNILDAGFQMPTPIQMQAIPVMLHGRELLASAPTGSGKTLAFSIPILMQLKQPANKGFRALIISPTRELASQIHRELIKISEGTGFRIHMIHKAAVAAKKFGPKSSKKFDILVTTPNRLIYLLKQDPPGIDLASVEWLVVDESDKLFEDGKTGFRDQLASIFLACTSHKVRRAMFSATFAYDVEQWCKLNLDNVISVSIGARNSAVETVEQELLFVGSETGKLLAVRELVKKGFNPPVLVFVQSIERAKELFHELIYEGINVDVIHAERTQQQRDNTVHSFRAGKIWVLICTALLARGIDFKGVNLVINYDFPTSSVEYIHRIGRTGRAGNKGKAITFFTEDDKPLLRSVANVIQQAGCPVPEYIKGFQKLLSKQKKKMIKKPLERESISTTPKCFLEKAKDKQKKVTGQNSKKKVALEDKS
# Procedure, shortened: as §1
smiles,measurement,setting,value
Nc1nc2c(ncn2[C@@H]2O[C@H](COP(=O)(O)OP(=O)(O)OP(=O)(O)O)[C@@H](O)[C@H]2O)c(=O)[nH]1 [guanosine triphosphate],NP40-soluble protein abundance,[1]; concentration: 0.1mM,0.992 ± 0.081
same,NP40-soluble protein abundance,[1]; concentration: 0.5mM,1.02 ± 0.098
same,NP40-soluble protein abundance,[1]; concentration: 1mM,0.956 ± 0.11
same,NP40-soluble protein abundance,[1]; concentration: 2mM,0.952 ± 0.092
same,NP40-soluble protein abundance,[1]; concentration: 4mM,0.928 ± 0.041
same,NP40-soluble protein abundance,[1]; concentration: 6mM,0.955 ± 0.095
same,NP40-soluble protein abundance,[1]; concentration: 8mM,0.916 ± 0.1
same,NP40-soluble protein abundance,[1]; concentration: 10mM,0.918 ± 0.092
same,NP40-soluble protein abundance,[2]; concentration: 0.1mM,1.09 ± 0.13
same,NP40-soluble protein abundance,[2]; concentration: 0.5mM,1.1 ± 0.081
same,NP40-soluble protein abundance,[2]; concentration: 1mM,1.03 ± 0.11
same,NP40-soluble protein abundance,[2]; concentration: 2mM,1.02 ± 0.12
same,NP40-soluble protein abundance,[2]; concentration: 4mM,1 ± 0.094
same,NP40-soluble protein abundance,[2]; concentration: 6mM,1.01 ± 0.13
same,NP40-soluble protein abundance,[2]; concentration: 8mM,0.996 ± 0.12
same,NP40-soluble protein abundance,[2]; concentration: 10mM,0.963 ± 0.062
same,NP40-soluble protein abundance,[3]; concentration: 0.1mM,1.05 ± 0.022
same,NP40-soluble protein abundance,[3]; concentration: 0.5mM,1.02 ± 0.032
same,NP40-soluble protein abundance,[3]; concentration: 1mM,1.091 ± 0.007
same,NP40-soluble protein abundance,[3]; concentration: 2mM,1.05 ± 0.036
same,NP40-soluble protein abundance,[3]; concentration: 4mM,1.1 ± 0.04
same,NP40-soluble protein abundance,[3]; concentration: 6mM,1.07 ± 0.041
same,NP40-soluble protein abundance,[3]; concentration: 8mM,1.12 ± 0.08
same,NP40-soluble protein abundance,[3]; concentration: 10mM,1.05 ± 0.056
same,NP40-soluble protein abundance,[4]; concentration: 0.1mM,0.995 ± 0.023
same,NP40-soluble protein abundance,[4]; concentration: 0.5mM,1.05 ± 0.023
same,NP40-soluble protein abundance,[4]; concentration: 1mM,1.05 ± 0.024
same,NP40-soluble protein abundance,[4]; concentration: 2mM,1.14 ± 0.065

# 2 successive records already listed:
smiles,measurement,setting,value
Nc1nc2c(ncn2[C@@H]2O[C@H](COP(=O)(O)OP(=O)(O)OP(=O)(O)O)[C@@H](O)[C@H]2O)c(=O)[nH]1 [guanosine triphosphate],NP40-soluble protein abundance,[3]; concentration: 0.5mM,1.02 ± 0.032
same,NP40-soluble protein abundance,[3]; concentration: 1mM,1.091 ± 0.007
